The source of these data is patent US20090220534A1, “METHODS FOR IDENTIFYING T-CELL EPITOPES ASSOCIATED WITH IMPAIRED PEPTIDE PROCESSING AND APPLICATIONS OF THE IDENTIFIED EPITOPES” (Leiden University Medical Center, priority 2006, published 2009).

Amino acid sequences for entries named in this document (tags omitted). Residues count along the entry.
UniProt P01899, residues 25-309: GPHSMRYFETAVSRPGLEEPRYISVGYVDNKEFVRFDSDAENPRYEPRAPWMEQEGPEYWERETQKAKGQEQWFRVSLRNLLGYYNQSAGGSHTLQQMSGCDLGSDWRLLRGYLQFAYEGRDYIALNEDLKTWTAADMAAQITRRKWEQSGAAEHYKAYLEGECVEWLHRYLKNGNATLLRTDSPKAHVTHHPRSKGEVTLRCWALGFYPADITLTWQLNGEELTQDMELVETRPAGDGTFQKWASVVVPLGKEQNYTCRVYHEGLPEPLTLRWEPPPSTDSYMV

These are yes or no findings as the source states them, for the method shown. Some binding calls cover weakened binding; strength is not graded here.

In test [1] the target is H-2D^b MHC class I molecule (mouse) (UniProt P01899). As to the kind of experiment: peptides eluted from purified Db of RMA-S cells, HPLC, tandem MS.
Test [2] shares this target. Kind of test: peptides eluted from immunoaffinity purified Db of RMA-S cells, HPLC, tandem MS.

Take MCLRMTAVM [… (Trh4 derived TEIPP D^b peptide, C-terminus of the protein of the long Trh4 transcript)]: the binding result in test [1] and in test [2] was “binds” each time.
